Source: PubChem BioAssay AID686938 (Drosophila RNAi Screening Center, 2013)

Purpose: 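Fly genes required for calcium entry once internal stores are emptied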 (primary screen)
System: Drosophila S2R+ cells
Reagent: long dsRNA against Drosophila genes, about 0.25 µg dsRNA per well, roughly 10,000 cells
Time to read-out: 5 days of knock-down before the calcium assay
Conditions: thapsigargin (SERCA pump blocker) to empty calcium stores; entry signal taken 4 min after adding it
Measurement: 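Duplicate raw fluo-4 intensities per well from a plate reader, at rest and four minutes after thapsigargin emptied calcium stores; entry-to-rest ratio filled for only some wells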
Reading the numbers: calcium entry signal: higher = stronger calcium signal after store depletion; resting calcium signal: higher = higher resting calcium signal
Active means: 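Called when the plate z-score of the entry-to-rest ratio, mean of duplicates, falls below −3; wells with low overall dye signal (Fmax z below −2) or more than five off-targets excluded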
Calls: active = strongly reduced calcium entry; inactive = no strong reduction
The screen tested about 23,000 reagents; this is a random part of those that have a named target and a result. Of all reagents, 75 (0.33%) are marked active. 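Raw plate signals without normalisation; calls rest on plate z-scores that were not deposited; ratio present for only 364 wells.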 Reagent sequences are not shown. Not given: the dose of the treatment.

| predicted target | dsRNA | calcium entry signal, replicate 1 (fluorescence units) | calcium entry signal, replicate 2 (fluorescence units) | resting calcium signal, replicate 1 (fluorescence units) | resting calcium signal, replicate 2 (fluorescence units) | Outcome |
| --- | --- | --- | --- | --- | --- | --- |
| rut | DRSC20367 | 3.07e7 | 2.52e7 | 1.73e7 | 1.39e7 | inactive |
| rut | DRSC22976 | 4.77e7 | 2.97e7 | 2.16e7 | 1.27e7 | inactive |
| CG34248 | DRSC09426 | 3.08e7 | 5.66e7 | 1.52e7 | 2.62e7 | inactive |
| Cpr49Ah | DRSC07204 | 2.82e7 | 4.25e7 | 1.57e7 | 2.13e7 | inactive |
| Ugt301D1 | DRSC02021 | 5.56e7 | 3.51e7 | 2.23e7 | 1.69e7 | inactive |
| Xpd | DRSC04666 | 3.57e7 | – | 1.96e7 | – | inactive |
| CG14931 | DRSC02413 | 4.20e7 | 5.45e7 | 2.16e7 | 2.37e7 | inactive |
| Ir93a | DRSC15212 | 3.88e7 | 3.56e7 | 1.66e7 | 1.40e7 | inactive |
| Ir93a | DRSC15213 | 4.01e7 | 5.33e7 | 7.07e7 | 2.36e7 | inactive |
| CG14644 | DRSC12230 | 3.40e7 | 5.04e7 | 1.58e7 | 2.22e7 | inactive |
| Rad9 | DRSC11263 | 4.20e7 | 4.76e7 | 1.80e7 | 3.45e7 | inactive |
| Ir94h | DRSC15232 | 2.97e7 | 4.29e7 | 1.53e7 | 1.89e7 | inactive |
| jhamt | DRSC01985 | 4.86e7 | 3.59e7 | 2.30e7 | 1.85e7 | inactive |
| uex | DRSC20784 | 3.34e7 | 3.82e7 | 1.58e7 | 1.70e7 | inactive |
| uex | DRSC20786 | 3.59e7 | 3.41e7 | 1.62e7 | 1.71e7 | inactive |
| CG10628 | DRSC02080 | 4.57e7 | 4.13e7 | 1.81e7 | 1.80e7 | inactive |
| btl | DRSC11331 | 3.27e7 | 3.44e7 | 1.45e7 | 1.40e7 | inactive |
| CG33116 | DRSC02045 | 2.85e7 | – | 1.58e7 | – | inactive |
| CG1620 | DRSC06603 | 3.85e7 | – | 2.03e7 | – | inactive |
| Rab19 | DRSC11260 | 2.05e7 | 3.72e7 | 1.05e7 | 1.67e7 | inactive |
| CCKLR-17D1 | DRSC20010 | 3.74e7 | 3.22e7 | 1.67e7 | 1.34e7 | inactive |
| CCKLR-17D1 | DRSC20011 | 3.89e7 | 3.34e7 | 1.70e7 | 1.37e7 | inactive |
| CCKLR-17D1 | DRSC20012 | 4.00e7 | 3.84e7 | 1.74e7 | 1.40e7 | inactive |
| GluRIIE | DRSC13431 | 2.54e7 | 2.39e7 | 1.36e7 | 1.16e7 | inactive |
| GstS1 | DRSC07436 | 2.38e7 | 2.60e7 | 1.01e7 | 1.23e7 | inactive |
| ohgt | DRSC15521 | 2.36e7 | 1.75e7 | 1.21e7 | 9.62e6 | inactive |
| CG12637 | DRSC17845 | 4.62e7 | 4.22e7 | 2.15e7 | 1.75e7 | inactive |
| Ccn | DRSC09504 | 4.42e7 | 3.81e7 | 2.00e7 | 1.78e7 | inactive |
| Ccn | DRSC09506 | 3.40e7 | 3.95e7 | 1.99e7 | 1.92e7 | inactive |
| Ccn | DRSC10062 | 3.73e7 | 4.64e7 | 1.82e7 | 3.11e7 | inactive |
| Ccn | DRSC10063 | 3.70e7 | 5.07e7 | 1.81e7 | 1.77e7 | inactive |
| Kdsr | DRSC14245 | 4.53e7 | 3.11e7 | 2.20e7 | 1.61e7 | inactive |
| CG10513 | DRSC14248 | 3.49e7 | 3.37e7 | 1.56e7 | 1.62e7 | inactive |
| CG3769 | DRSC02723 | 3.08e7 | 4.94e7 | 1.47e7 | 2.08e7 | inactive |
| CG4074 | DRSC11752 | 2.54e7 | 4.67e7 | 1.26e7 | 1.93e7 | inactive |
| CG7544 | DRSC07023 | 3.66e7 | 2.15e7 | 1.91e7 | 1.14e7 | inactive |
| Gpdh1 | DRSC03336 | 3.45e7 | 5.06e7 | 1.76e7 | 2.44e7 | inactive |
| Gpdh1 | DRSC21666 | 4.64e7 | 3.54e7 | 2.49e7 | 1.74e7 | inactive |
| yellow-d | DRSC04589 | 3.14e7 | 3.35e7 | 1.68e7 | 1.50e7 | inactive |
| CG16700 | DRSC19755 | 3.77e7 | 3.79e7 | 1.99e7 | 1.66e7 | inactive |
| CG12071 | DRSC14471 | 2.90e7 | 4.19e7 | 1.69e7 | 1.97e7 | inactive |
| CG12071 | DRSC22972 | 5.57e7 | 2.98e7 | 2.84e7 | 1.27e7 | inactive |
| frtz | DRSC00512 | 3.19e7 | 4.87e7 | 1.60e7 | 2.02e7 | inactive |
| Toll-9 | DRSC11776 | 2.58e7 | 4.81e7 | 1.33e7 | 1.86e7 | inactive |
| alpha-Est4aPsi | DRSC12473 | 3.77e7 | 4.32e7 | 1.77e7 | 2.32e7 | inactive |
| CG10560 | DRSC14256 | 3.04e7 | 5.65e7 | 1.66e7 | 2.55e7 | inactive |
| CG14414 | DRSC19599 | 3.33e7 | 3.00e7 | 1.69e7 | 1.31e7 | inactive |
| CG12204 | DRSC19442 | 3.07e7 | 3.86e7 | 1.47e7 | 1.57e7 | inactive |
| CG5783 | DRSC02894 | 5.09e7 | 3.35e7 | 2.07e7 | 1.60e7 | inactive |
| CG30156 | DRSC04959 | 1.75e7 | 2.63e7 | 9.58e6 | 1.18e7 | inactive |
| CG33288 | DRSC11484 | 3.31e7 | 5.20e7 | 1.81e7 | 2.33e7 | inactive |
| Peritrophin-A | DRSC20570 | 2.95e7 | 3.48e7 | 1.38e7 | 1.56e7 | inactive |
| Hrs | DRSC00549 | 4.13e7 | – | 2.04e7 | – | inactive |
| Cyp28d1 | DRSC03298 | 4.16e7 | – | 2.01e7 | – | inactive |
| Cyp28d1 | DRSC21331 | 2.58e7 | 2.58e7 | 1.42e7 | 1.34e7 | inactive |
| CG15356 | DRSC00386 | 2.85e7 | 2.60e7 | 1.40e7 | 1.23e7 | inactive |
| CG9547 | DRSC03260 | 4.61e7 | – | 2.22e7 | – | inactive |
| rogdi | DRSC10906 | 2.58e7 | 3.93e7 | 1.31e7 | 2.59e7 | inactive |
